Measured values: patent US12521402B2, “Biomarker and drug combinations for heart failure prediction” (Endothelium Scanning Nanotechnology Limited, priority 2022, dated 2026)

Experiment: Saliva proteomics: biomarker quantification by mass spectrometry SWATH in participants at risk of heart failure vs controls
Design: species or system human
Conditions: for AtRisk average: 'at risk' of heart failure group mean; for Control average: control group mean
[1] = differential expression (fold) between control and at-risk averages, saliva
[2] = saliva, mass spectrometry SWATH, 20 samples
[3] = saliva, mass spectrometry SWATH quantification

B1: PPM1A (protein, UniProt P35813 2-382, looked up)
Protein phosphatase 1A: GAFLDKPKMEKHNAQGQGNGLRYGLSSMQGWRVEMEDAHTAVIGLPSGLESWSFFAVYDGHAGSQVAKYCCEHLLDHITNNQDFKGSAGAPSVENVKNGIRTGFLEIDEHMRVMSEKKHGADRSGSTAVGVLISPQHTYFINCGDSRGLLCRNRKVHFFTQDHKPSNPLEKERIQNAGGSVMIQRVNGSLAVSRALGDFDYKCVHGKGPTEQLVSPEPEVHDIERSEEDDQFIILACDGIWDVMGNEELCDFVRSRLEVTDDLEKVCNEVVDTCLYKGSRDNMSVILICFPNAPKVSPEAVKKEAELDKYLECRVEEIIKKQGEGVPDLVHVMRTLASENIPSLPPGGELASKRNVIEAVYNRLNPYKNDDTDSTSTDDMW
[1]
  Control vs Risk: 1.87
[2]
  AtRisk average: 16,721 ng/ml
  Control average: 31,211 ng/ml

B2: FLOT2 (protein, UniProt Q14254 2-428, looked up)
Flotillin-2: GNCHTVGPNEALVVSGGCCGSDYKQYVFGGWAWAWWCISDTQRISLEIMTLQPRCEDVETAEGVALTVTGVAQVKIMTEKELLAVACEQFLGKNVQDIKNVVLQTLEGHLRSILGTLTVEQIYQDRDQFAKLVREVAAPDVGRMGIEILSFTIKDVYDKVDYLSSLGKTQTAVVQRDADIGVAEAERDAGIREAECKKEMLDVKFMADTKIADSKRAFELQKSAFSEEVNIKTAEAQLAYELQGAREQQKIRQEEIEIEVVQRKKQIAVEAQEILRTDKELIATVRRPAEAEAHRIQQIAEGEKVKQVLLAQAEAEKIRKIGEAEAAVIEAMGKAEAERMKLKAEAYQKYGDAAKMALVLEALPQIAAKIAAPLTKVDEIVVLSGDNSKVTSEVNRLLAELPASVHALTGVDLSKIPLIKKATGVQV
[1]
  Control vs Risk: 1.84
[2]
  AtRisk average: 176,637 ng/ml
  Control average: 95,775 ng/ml

B3: CBR1 (protein, UniProt P16152 2-277, looked up)
Carbonyl reductase [NADPH] 1: SSGIHVALVTGGNKGIGLAIVRDLCRLFSGDVVLTARDVTRGQAAVQQLQAEGLSPRFHQLDIDDLQSIRALRDFLRKEYGGLDVLVNNAGIAFKVADPTPFHIQAEVTMKTNFFGTRDVCTELLPLIKPQGRVVNVSSIMSVRALKSCSPELQQKFRSETITEEELVGLMNKFVEDTKKGVHQKEGWPSSAYGVTKIGVTVLSRIHARKLSEQRKGDKILLNACCPGWVRTDMAGPKATKSPEEGAETPVYLALLPPDAEGPHGQFVSEKRVEQW
[1]
  Control vs Risk: 1.81
[2]
  AtRisk average: 801,903 ng/ml
  Control average: 442,719 ng/ml

B4: FAM3B (protein, UniProt P58499 30-235, looked up)
Protein FAM3B: ELIPDAPLSSAAYSIRSIGERPVLKAPVPKRQKCDHWTPCPSDTYAYRLLSGGGRSKYAKICFEDNLLMGEQLGNVARGINIAIVNYVTGNVTATRCFDMYEGDNSGPMTKFIQSAAPKSLLFMVTYDDGSTRLNNDAKNAIEALGSKEIRNMKFRSSWVFIAAKGLELPSEIQREKINHSDAKNNRYSGWPAEIQIEGCIPKERS
[1]
  Control vs Risk: 1.81
[2]
  AtRisk average: 949,144 ng/ml
  Control average: 1,715,875 ng/ml

B5: CAND1 (protein, UniProt Q86VP6 2-1230, looked up)
Cullin-associated …: ASASYHISNLLEKMTSSDKDFRFMATNDLMTELQKDSIKLDDDSERKVVKMILKLLEDKNGEVQNLAVKCLGPLVSKVKEYQVETIVDTLCTNMLSDKEQLRDISSIGLKTVIGELPPASSGSALAANVCKKITGRLTSAIAKQEDVSVQLEALDIMADMLSRQGGLLVNFHPSILTCLLPQLTSPRLAVRKRTIIALGHLVMSCGNIVFVDLIEHLLSELSKNDSMSTTRTYIQCIAAISRQAGHRIGEYLEKIIPLVVKFCNVDDDELREYCIQAFESFVRRCPKEVYPHVSTIINICLKYLTYDPNYNYDDEDEDENAMDADGGDDDDQGSDDEYSDDDDMSWKVRRAAAKCLDAVVSTRHEMLPEFYKTVSPALISRFKEREENVKADVFHAYLSLLKQTRPVQSWLCDPDAMEQGETPLTMLQSQVPNIVKALHKQMKEKSVKTRQCCFNMLTELVNVLPGALTQHIPVLVPGIIFSLNDKSSSSNLKIDALSCLYVILCNHSPQVFHPHVQALVPPVVACVGDPFYKITSEALLVTQQLVKVIRPLDQPSSFDATPYIKDLFTCTIKRLKAADIDQEVKERAISCMGQIICNLGDNLGSDLPNTLQIFLERLKNEITRLTTVKALTLIAGSPLKIDLRPVLGEGVPILASFLRKNQRALKLGTLSALDILIKNYSDSLTAAMIDAVLDELPPLISESDMHVSQMAISFLTTLAKVYPSSLSKISGSILNELIGLVRSPLLQGGALSAMLDFFQALVVTGTNNLGYMDLLRMLTGPVYSQSTALTHKQSYYSIAKCVAALTRACPKEGPAVVGQFIQDVKNSRSTDSIRLLALLSLGEVGHHIDLSGQLELKSVILEAFSSPSEEVKSAASYALGSISVGNLPEYLPFVLQEITSQPKRQYLLLHSLKEIISSASVVGLKPYVENIWALLLKHCECAEEGTRNVVAECLGKLTLIDPETLLPRLKGYLISGSSYARSSVVTAVKFTISDHPQPIDPLLKNCIGDFLKTLEDPDLNVRRVALVTFNSAAHNKPSLIRDLLDTVLPHLYNETKVRKELIREVEMGPFKHTVDDGLDIRKAAFECMYTLLDSCLDRLDIFEFLNHVEDGLKDHYDIKMLTFLMLVRLSTLCPSAVLQRLDRLVEPLRATCTTKVKANSVKQEFEKQDELKRSAMRAVAALLTIPEAEKSPLMSEFQSQISSNPELAAIFESIQKDSSSTNLESMDTS
[1]
  Control vs Risk: 1.81
[2]
  AtRisk average: 82,739 ng/ml
  Control average: 45,823 ng/ml

B6: NOL12 (protein, UniProt Q9UGY1 1-213, looked up)
Nucleolar protein 12: MGRNKKKKRDGDDRRPRLVLSFDEEKRREYLTGFHKRKVERKKAAIEEIKQRLKEEQRKLREERHQEYLKMLAEREEALEEADELDRLVTAKTESVQYDHPNHTVTVTTISDLDLSGARLLGLTPPEGGAGDRSEEEASSTEKPTKALPRKSRDPLLSQRISSLTASLHAHSRKKVKRKHPRRAQDSKKPPRAPRTSKAQRRRLTGKARHSGE
Differential expression (fold) control vs 'at risk', printed as larger/smaller average whatever the direction
  Control vs Risk: 4.81
[3]
  AtRisk average: 289,076 ng/ml
  Control average: 60,052 ng/ml

B7: PIPNA (protein, UniProt Q00169 2-270, looked up)
Phosphatidylinositol transfer …: VLLKEYRVILPVSVDEYQVGQLYSVAEASKNETGGGEGVEVLVNEPYEKDGEKGQYTHKIYHLQSKVPTFVRMLAPEGALNIHEKAWNAYPYCRTVITNEYMKEDFLIKIETWHKPDLGTQENVHKLEPEAWKHVEAVYIDIADRSQVLSKDYKAEEDPAKFKSIKTGRGPLGPNWKQELVNQKDCPYMCAYKLVTVKFKWWGLQNKVENFIHKQERRLFTNFHRQLFCWLDKWVDLTMDDIRRMEEETKRQLDEMRQKDPVKGMTADD
[1]
  Control vs Risk: 1.76
[2]
  AtRisk average: 107,714 ng/ml
  Control average: 61,311 ng/ml

B8: HINT2 (protein, UniProt Q9BX68 18-163, looked up)
Adenosine …: VAATGVRGGQVRGAAGVTDGNEVAKAQQATPGGAAPTIFSRILDKSLPADILYEDQQCLVFRDVAPQAPVHFLVIPKKPIPRISQAEEEDQQLLGHLLLVAKQTAKAEGLGDGYRLVINDGKLGAQSVYHLHIHVLGGRQLQWPPG
[1]
  Control vs Risk: 1.72
[2]
  AtRisk average: 11,022 ng/ml
  Control average: 6,406 ng/ml

B9: PDIA3 (protein, UniProt P30101 25-505, looked up)
Protein disulfide-isomerase A3: SDVLELTDDNFESRISDTGSAGLMLVEFFAPWCGHCKRLAPEYEAAATRLKGIVPLAKVDCTANTNTCNKYGVSGYPTLKIFRDGEEAGAYDGPRTADGIVSHLKKQAGPASVPLRTEEEFKKFISDKDASIVGFFDDSFSEAHSEFLKAASNLRDNYRFAHTNVESLVNEYDDNGEGIILFRPSHLTNKFEDKTVAYTEQKMTSGKIKKFIQENIFGICPHMTEDNKDLIQGKDLLIAYYDVDYEKNAKGSNYWRNRVMMVAKKFLDAGHKLNFAVASRKTFSHELSDFGLESTAGEIPVVAIRTAKGEKFVMQEEFSRDGKALERFLQDYFDGNLKRYLKSEPIPESNDGPVKVVVAENFDEIVNNENKDVLIEFYAPWCGHCKNLEPKYKELGEKLSKDPNIVIAKMDATANDVPSPYEVRGFPTIYFSPANKKLNPKKYEGGRELSDFISYLQREATNPPVIQEEKPKKKKKAQEDL
[1]
  Control vs Risk: 1.69
[2]
  AtRisk average: 6,609,725 ng/ml
  Control average: 11,140,398 ng/ml
